The source of these data is article PMC6100580.

Results are given in words; binding and its absence hold for the method and conditions named. Binding seen in cells or lysates may run through a third protein. Where a sequence is shown, tags or fusion partners need not be part of it.

Test [1] has as its target Flag-tagged HBV middle S (hepatitis B virus). As to the kind of experiment: co-IP; 293 T cells co-transfected with HA-TRIM14 (WT or mutants) and a Flag-tagged HBV protein, collected 40 h later; lysis in 50 mM Tris-HCl pH 8.0, 150 mM NaCl, 1% NP-40; ANTI-FLAG M2 Affinity Gel overnight; immunoblot.
Test [2] deals with Flag-tagged HBV small S (hepatitis B virus). Described as above.

B1: HA-TRIM14 (protein, UniProt Q14142 1-442)
chain: MAGAATGSRTPGRSELVEGCGWRCPEHGDRVAELFCRRCRRCVCALCPVLGAHRGHPVGLALEAAVHVQKLSQECLKQLAIKKQQHIDNITQIEDATEKLKANAESSKTWLKGKFTELRLLLDEEEALAKKFIDKNTQLTLQVYREQADSCREQLDIMNDLSNRVWSISQEPDPVQRLQAYTATEQEMQQQMSLGELCHPVPLSFEPVKSFFKGLVEAVESTLQTPLDIRLKESINCQLSDPSSTKPGTLLKTSPSPERSLLLKYARTPTLDPDTMHARLRLSADRLTVRCGLLGSLGPVPVLRFDALWQVLARDCFATGRHYWEVDVQEAGAGWWVGAAYASLRRRGASAAARLGCNRQSWCLKRYDLEYWAFHDGQRSRLRPRDDLDRLGVFLDYEAGVLAFYDVTGGMSHLHTFRATFQEPLYPALRLWEGAISIPRLP
Take B1: the binding result in test [1] and in test [2] was “no binding” throughout.
